No constants are given. Whether binding was seen depends on the method and setting. Binding seen in cells or lysates may run through a third protein. Here binding means that the protein was enriched with, or labelled near, the bait; the list need not be complete.
T1: Venus-XLG2^E293K (Arabidopsis thaliana) (UniProt C6KIE6)
T1 sequence: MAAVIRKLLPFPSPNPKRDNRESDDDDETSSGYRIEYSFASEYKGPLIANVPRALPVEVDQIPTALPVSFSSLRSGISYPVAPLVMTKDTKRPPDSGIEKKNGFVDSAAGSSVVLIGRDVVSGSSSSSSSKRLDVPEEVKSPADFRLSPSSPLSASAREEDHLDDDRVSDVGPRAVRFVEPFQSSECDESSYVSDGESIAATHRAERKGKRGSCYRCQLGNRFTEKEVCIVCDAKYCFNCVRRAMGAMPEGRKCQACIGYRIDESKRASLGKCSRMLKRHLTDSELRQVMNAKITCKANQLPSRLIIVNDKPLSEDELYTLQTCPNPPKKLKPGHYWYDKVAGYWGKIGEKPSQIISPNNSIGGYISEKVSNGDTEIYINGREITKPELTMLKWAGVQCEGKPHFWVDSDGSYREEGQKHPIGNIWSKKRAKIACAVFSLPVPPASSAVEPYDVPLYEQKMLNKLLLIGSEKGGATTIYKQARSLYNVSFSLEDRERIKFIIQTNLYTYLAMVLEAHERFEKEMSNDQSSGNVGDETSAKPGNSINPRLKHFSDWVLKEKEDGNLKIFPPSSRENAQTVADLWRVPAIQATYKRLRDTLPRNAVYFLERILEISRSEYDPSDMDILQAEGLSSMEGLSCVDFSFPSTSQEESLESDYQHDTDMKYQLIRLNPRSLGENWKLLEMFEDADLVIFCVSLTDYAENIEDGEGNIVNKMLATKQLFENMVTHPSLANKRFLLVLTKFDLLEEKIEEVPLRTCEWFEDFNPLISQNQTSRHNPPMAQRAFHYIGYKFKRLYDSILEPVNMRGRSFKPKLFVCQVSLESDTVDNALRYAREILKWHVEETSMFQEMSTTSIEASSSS

T2: Venus-XLG2 (EXTRA LARGE G-PROTEIN 2, wild type) (Arabidopsis thaliana) (UniProt C6KIE6)
T2 sequence: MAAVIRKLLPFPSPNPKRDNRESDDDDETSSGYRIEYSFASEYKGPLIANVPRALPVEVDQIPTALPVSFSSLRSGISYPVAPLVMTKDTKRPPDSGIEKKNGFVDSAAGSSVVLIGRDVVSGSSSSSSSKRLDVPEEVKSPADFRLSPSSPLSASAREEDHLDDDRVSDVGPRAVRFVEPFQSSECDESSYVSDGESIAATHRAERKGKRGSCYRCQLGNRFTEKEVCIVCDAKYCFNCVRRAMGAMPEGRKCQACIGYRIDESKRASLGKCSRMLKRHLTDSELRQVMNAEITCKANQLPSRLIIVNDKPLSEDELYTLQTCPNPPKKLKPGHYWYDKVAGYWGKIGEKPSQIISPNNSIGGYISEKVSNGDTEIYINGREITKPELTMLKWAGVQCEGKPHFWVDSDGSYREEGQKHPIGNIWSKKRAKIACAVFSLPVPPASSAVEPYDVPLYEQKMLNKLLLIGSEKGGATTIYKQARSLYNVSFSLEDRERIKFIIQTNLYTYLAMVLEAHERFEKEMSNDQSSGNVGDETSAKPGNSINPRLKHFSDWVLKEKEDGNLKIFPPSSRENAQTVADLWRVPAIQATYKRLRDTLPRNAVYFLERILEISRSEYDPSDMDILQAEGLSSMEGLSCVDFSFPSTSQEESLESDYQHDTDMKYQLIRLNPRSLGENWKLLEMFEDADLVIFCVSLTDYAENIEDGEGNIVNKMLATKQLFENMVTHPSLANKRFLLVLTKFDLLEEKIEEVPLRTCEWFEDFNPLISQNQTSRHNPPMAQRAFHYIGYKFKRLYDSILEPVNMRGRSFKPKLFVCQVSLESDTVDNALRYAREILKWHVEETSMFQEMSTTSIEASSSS


What was measured:
[1] = molecular target: T1, Venus-XLG2^E293K (Arabidopsis thaliana); test: affinity purification with mass spectrometry
[2] = molecular target: T2, Venus-XLG2 (EXTRA LARGE G-PROTEIN 2, wild type) (Arabidopsis thaliana); test: affinity purification with mass spectrometry

Binder	binding [1]	binding [2]
PLANT U-BOX 2 (PUB2) (enzyme, UniProt Q5XEZ8 1-707) MMVHMEVSWLRVLLDNISSYLSLSSMDDLSSNPAHKYYTRGEDIGKLIKPVLENLIDSDAAPSELLNNGFEELAQYVDELREQFQSWQPLSTRIFYVLRIESLASKLRESSLEVFQLLKHCEQHLPADLISPSFEECIELVKLVARDEISYTIDQALKDQKKGVGPTSEVLVKIAESTGLRSNQEILVEGVVLTNMKEDAELTDNDTEAEYLDGLISLTTQMHEYLSDIKQAQLRCPVRVPSDFRCSLSLELMTDPVIVASGQTFERVFIQKWIDMGLMVCPKTRQALSHTTLTPNFIVRAFLASWCETNNVYPPDPLELIHSSEPFPLLVESVRASSSENGHSESLDAEELRQVFSRSASAPGIVSEVVCKTKRNNNAAADRSLTRSNTPWKFPEERHWRHPGIIPATVRETGSSSSIETEVKKLIDDLKSSSLDTQREATARIRILARNSTDNRIVIARCEAIPSLVSLLYSTDERIQADAVTCLLNLSINDNNKSLIAESGAIVPLIHVLKTGYLEEAKANSAATLFSLSVIEEYKTEIGEAGAIEPLVDLLGSGSLSGKKDAATALFNLSIHHENKTKVIEAGAVRYLVELMDPAFGMVEKAVVVLANLATVREGKIAIGEEGGIPVLVEVVELGSARGKENATAALLQLCTHSPKFCNNVIREGVIPPLVALTKSGTARGKEKAQNLLKYFKAHRQSNQRRG	binds	binds
PLANT U-BOX 4 (PUB4) (enzyme, UniProt O22193 1-826) MEVLLRSISSFLNLSSSKHIDLDPFEKYYKRVEELLRVLKPIADVVVTSDFVFDEKLGKAFEELTQDVDQSIDLFRSWQAFSSKVYFVLQIESLLPKMRDTIVDTFQFLMSSKNHLPDELSPASLEQCLEKIKHLSYEEISSVIDGALRDQRDGVGPSPEILVKIGENTGLRSNQEILIEAVALERQKEMAEQSENNAEVEFLDQLIVIVNRMHERLLLIKQTQTSSVAILADFFCPLSLEVMTDPVIVSSGQTYEKAFIKRWIDLGLKVCPKTRQTLTHTTLIPNYTVKALIANWCETNDVKLPDPNKSTSLNELSPLLSCTDSIPSTGADVSARKVSNKSHDWDASSSETGKPSFSSRATEREGASPSRPASALGASSPGISGNGYGLDARRGSLNDFEDRSNDSRELRTDAPGRSSVSSTTRGSVENGQTSENHHHRSPSATSTVSNEEFPRADANENSEESAHATPYSSDASGEIRSGPLAATTSAATRRDLSDFSPKFMDRRTRGQFWRRPSERLGSRIVSAPSNETRRDLSEVETQVKKLVEELKSSSLDTQRQATAELRLLAKHNMDNRIVIGNSGAIVLLVELLYSTDSATQENAVTALLNLSINDNNKKAIADAGAIEPLIHVLENGSSEAKENSAATLFSLSVIEENKIKIGQSGAIGPLVDLLGNGTPRGKKDAATALFNLSIHQENKAMIVQSGAVRYLIDLMDPAAGMVDKAVAVLANLATIPEGRNAIGQEGGIPLLVEVVELGSARGKENAAAALLQLSTNSGRFCNMVLQEGAVPPLVALSQSGTPRAREKAQALLSYFRNQRHGNAGRG	binds	binds
